Data as given in PubChem BioAssay AID1259308 (NCATS, 2017)
Shown is one part, drawn at random, of about 59,000 deposited reagents. In the full data, about 1,510 (2.6%) were called active. 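Calls use total luciferase alone and ignore viability, so some active siRNAs may act by altering cell number.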 Entries without a mark were called inactive. The numbers tell different reagents against one gene apart. Not all columns of the deposit are shown.

- Screen: 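Candidate targets for better recombinant protein yield in mammalian cells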 (primary screen)
- System: human HEK293 embryonic kidney cells stably expressing firefly luciferase (HEK-CMV-Luc2-Hygro)
- Knock-down reagent: single siRNA against human genes, 0.8 pmol siRNA per well
- Duration: 72 h
- Measurement: 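Reporter luminescence and viable-cell signal on separate replicate plates, given as percent of non-targeting control and median/MAD z-scores, plus per-cell luciferase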
- Scale: total luciferase, z-score and total luciferase, % of control: higher = more reporter protein produced
- Call rule: 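Active when the median/MAD z-score for overall luciferase is greater than 3; a gene was taken forward for validation with new siRNAs if at least two of its three siRNAs passed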
- Calls: active = raised luciferase; inactive = no rise

gene knocked down | reagent no. | total luciferase, z-score | total luciferase, % of control
P2RY13 (purinergic receptor P2Y13) | 1 | -0.604 | 69.9
P2RY13 (purinergic receptor P2Y13) | 2 | -1.28 | 56.5
P2RY13 (purinergic receptor P2Y13) | 3 | -0.529 | 71.4
RPRML (reprimo like) | 1 | 1.12 | 104
RPRML (reprimo like) | 2 | 1.85 | 119
RPRML (reprimo like) | 3 | -0.62 | 69.5
NPAS3 (neuronal PAS domain protein 3) | 1 | -0.1 | 79.9
NPAS3 (neuronal PAS domain protein 3) | 2 | -1.22 | 57.7
NPAS3 (neuronal PAS domain protein 3) | 3 | -0.869 | 64.6
DNAJB14 (DnaJ heat shock protein family (Hsp40) member B14) | 1 | 0.939 | 101
DNAJB14 (DnaJ heat shock protein family (Hsp40) member B14) | 2 | 0.0906 | 83.7
DNAJB14 (DnaJ heat shock protein family (Hsp40) member B14) | 3 | -0.601 | 69.9
TCTN3 (tectonic family member 3) | 1 | 0.277 | 87.4
TCTN3 (tectonic family member 3) | 2 | 0.638 | 94.6
TCTN3 (tectonic family member 3) | 3 | 0.934 | 100
BSCL2 (BSCL2 lipid droplet biogenesis associated, seipin) | 1 | 0.194 | 85.7
BSCL2 (BSCL2 lipid droplet biogenesis associated, seipin) | 2 | 0.339 | 88.6
BSCL2 (BSCL2 lipid droplet biogenesis associated, seipin) | 3 | -0.498 | 72
DLL1 (delta like canonical Notch ligand 1) | 1 | 1.94 | 120
DLL1 (delta like canonical Notch ligand 1) | 2 | 0.202 | 85.9
DLL1 (delta like canonical Notch ligand 1) | 3 | 1.75 | 117
CEP15 (centrosomal protein 15) | 1 | 0.618 | 94.2
CEP15 (centrosomal protein 15) | 2 | 0.911 | 100
CEP15 (centrosomal protein 15) | 3 | -0.156 | 78.8
STK36 (serine/threonine kinase 36) | 1 | 0.325 | 88.4
STK36 (serine/threonine kinase 36) | 2 | 0.235 | 86.6
STK36 (serine/threonine kinase 36) | 3 | 0.676 | 95.3
CLIC5 (CLIC family member 5) | 1 | -0.716 | 67.7
CLIC5 (CLIC family member 5) | 2 | -0.934 | 63.3
CLIC5 (CLIC family member 5) | 3 | 0.427 | 90.4
SLC5A6 | 1 | 0.0986 | 83.8
SLC5A6 | 2 | -0.976 | 62.5
SLC5A6 | 3 | -1.33 | 55.4
RPL11 (ribosomal protein L11) | 1 | -2.74 | 27.4
RPL11 (ribosomal protein L11) | 2 | -2.88 | 24.6
RPL11 (ribosomal protein L11) | 3 | -2.52 | 31.8
CROCCP3 (CROCC pseudogene 3) | 1 | -2.51 | 32
CROCCP3 (CROCC pseudogene 3) | 2 | 0.222 | 86.3
CROCCP3 (CROCC pseudogene 3) | 3 | 1.6 | 114
SNU13 (small nuclear ribonucleoprotein 13) | 1 | 0.597 | 93.8
SNU13 (small nuclear ribonucleoprotein 13) | 2 | 1.08 | 103
SNU13 (small nuclear ribonucleoprotein 13) | 3 | 1.3 | 108
CTSA (cathepsin A) | 1 | 0.0565 | 83
CTSA (cathepsin A) | 2 | 0.174 | 85.3
CTSA (cathepsin A) | 3 | -0.00994 | 81.7
CEL (carboxyl ester lipase) | 1 | -0.501 | 71.9
CEL (carboxyl ester lipase) | 2 | -0.601 | 69.9
CEL (carboxyl ester lipase) | 3 | -0.429 | 73.4
SP5 (Sp5 transcription factor) | 1 | 2.43 | 130
SP5 (Sp5 transcription factor) | 2 | 1.65 | 115
SP5 (Sp5 transcription factor) | 3 | 0.411 | 90.1
BTD (biotinidase) | 1 | 1.26 | 107
BTD (biotinidase) | 2 | -0.367 | 74.6
BTD (biotinidase) | 3 | 0.546 | 92.7
EBI3 (Epstein-Barr virus induced 3) | 1 | 0.146 | 84.8
EBI3 (Epstein-Barr virus induced 3) | 2 | -0.839 | 65.2
EBI3 (Epstein-Barr virus induced 3) | 3 | -0.92 | 63.6

Already shown: entries from further up.
gene knocked down | reagent no. | total luciferase, z-score | total luciferase, % of control
CEP15 (centrosomal protein 15) | 3 | -0.156 | 78.8
STK36 (serine/threonine kinase 36) | 1 | 0.325 | 88.4
STK36 (serine/threonine kinase 36) | 2 | 0.235 | 86.6
STK36 (serine/threonine kinase 36) | 3 | 0.676 | 95.3
CLIC5 (CLIC family member 5) | 1 | -0.716 | 67.7
CLIC5 (CLIC family member 5) | 2 | -0.934 | 63.3
CLIC5 (CLIC family member 5) | 3 | 0.427 | 90.4
SLC5A6 | 1 | 0.0986 | 83.8
